Measurements taken from patent US20250381223A1.
Substitutions are numbered along the chain they refer to. Results are given in words; binding and its absence hold for the method and conditions named. Some binding calls cover weakened binding; strength is not graded here.

Chains of the proteins cited; added tags and fusions are not shown. Lines headed by an entry give the natural chain unless they say otherwise; changes in a name come on top. A line that says so, or that is headed by a name, gives the form on record, which may keep a tag or linker. Residues count along the entry.
UniProt P10747, residues 19-152: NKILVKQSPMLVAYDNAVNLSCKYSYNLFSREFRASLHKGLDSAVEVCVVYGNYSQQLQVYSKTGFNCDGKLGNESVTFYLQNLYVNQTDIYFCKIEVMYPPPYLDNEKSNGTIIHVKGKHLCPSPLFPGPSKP
UniProt P25942, residues 21-193: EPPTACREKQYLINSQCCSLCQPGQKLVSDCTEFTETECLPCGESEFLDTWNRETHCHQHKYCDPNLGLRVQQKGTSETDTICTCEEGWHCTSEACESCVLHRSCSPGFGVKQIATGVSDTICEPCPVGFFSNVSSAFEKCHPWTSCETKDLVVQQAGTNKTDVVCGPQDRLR
mesothelin-Fc recombinant protein (Q13421, form named): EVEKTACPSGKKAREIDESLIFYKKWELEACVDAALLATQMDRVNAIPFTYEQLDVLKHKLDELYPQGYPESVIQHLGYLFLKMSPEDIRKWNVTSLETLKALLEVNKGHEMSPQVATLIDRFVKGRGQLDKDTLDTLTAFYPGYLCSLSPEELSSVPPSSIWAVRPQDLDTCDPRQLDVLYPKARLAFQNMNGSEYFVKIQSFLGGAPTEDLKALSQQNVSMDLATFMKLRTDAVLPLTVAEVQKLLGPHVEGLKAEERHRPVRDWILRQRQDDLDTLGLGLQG

B1: huVH1huVL1 (antibody, human IgG1, kappa, V domains shown)
VH: QVKLQESGPGLVKPSETLSITCTVSGFSLSDYGVHWVRQSPGKGLEWLGVIWAGGGTNYNSALMSRKTISKDNSKSQVFLKMSSLTAADTAVYYCARDKGYSYYYSMDYWGQGTTVTVSS
VL: DIQLTQSPSSLSVSVGDRVTISCRASESVEYYVTSLMQWYQQKPGQAPKLLIFAASNVESGVPSRFSGSGSGTNFTLTISSVQEEDFAMYFCQQSRKVPYTFGGGTKLEIKR
B2: 4052.17 (antibody, V domains shown)
VH: QVQLVQSGAEVKKPGSSVKVSCKASGGTFSSYAISWVRQAPGQGLEWMGMINPSGGTTSYAQKFQGRVTMTRDTSTSTVYMELSSLRPEDTAVYYCARGFRMDQWGQGTLVTVSS
VL: QSALTQPPSASGSPGQSVTISCTGTSSDVGAYNFVSWYQQHPGNAPKLIIYDVRKRPSGIPDRFSASKSGNTASLTVSGLQADDEADYYCSSYAGNNEMVFGGGTKLTVL
B3: anti-mesothelin scFv-M20 (scFv)
scFv: AIQMTQSPSSLSASVGNRVTITCRASQGISSAVAWYQQKPGKPPKLLISYASSLESGVPSRFSGSGSGTDFSLTISSLQPEDFATYFCQQFNSYPLTFGGGTKVEIKGGGGSGGGGSGGGGSQVQLVQSGAEVRKPGESLKISCKGSGYSFRDSWIAWVRQMPGQGLEWMGIIFPGDSNPIYSPSFQGQVTISADTSISTTFLQWRSLKASDSAIYYCARHAAWGAGWFDPWGQGTLVTVSS
B4: anti-mesothelin scFv-M7 (scFv)
scFv: DIRLTQSPSSLSASLGDRVTITCRASQAISSALAWYQQKPGKAPRLLIYDASTLESGVPSRFSGSGSGTDFTLTISSLQPEDFATYYCQQADSFPLTFGGGTKLEIKGGGGSGGGGSGGGGSQVQLVQSGAEVKKSGESLKISCKGSGYGFGAYWIAWVRQMPGKGLEWMGIIYPGDSRVIYSPYFQGQVTISADKSISTAYLQWSSLKASDTAMYYCARFGGPKFATNWFDIWGQGTTVTVSS
B5: anti-mesothelin scFv-M13 (scFv)
scFv: AIRMTQSPSSLSASVGDRVTITCRASQGISNSLAWYQQKPGKAPKLLLYAASRLESGVPSRFSGSGSGTDYTLTISSLQPEDFATYYCQQYYSTPFTFGPGTKLEIKGGGGSGGGGSGGGGSQVQLVQSGAEVKKPGSSVKVSCKTSADTFSANTINWVRQAPGHGLEWMGRIIPSLNIRDYAQEFQGRVTFTADESTNTVYMQLTSLRSEDTAVYYCARDPGSTWSPNQFFPHWGQGTLVTVSS
B6: anti-mesothelin scFv-M24 (scFv)
scFv: QPVLTQPPSASGTPGQRVTISCSGSSSNIGSNYVYWYQQFPGTAPKLLIYMNNQRPSGVPDRFSGSKSGTSASLAISGLRSEDEADYYCAARDDSLSGYVTFGGGTKLTVLGGGGSGGGGSGGGGSEVHLVESGGGLVQPGGSLRLSCAASGFTFSSYAMSWVRQAPGKGLEWVSAISGSGGSTYYADSVKGRFTISRDNSKNTLYLQMNSLKTEDTAVYYCTRGVATFDYWGQGTLVTVSS
B7: anti-mesothelin scFv-M6 (scFv)
scFv: EIVMTQSPATLSLSPGERATLSCRASQSIGNSLAWYQQKPGQAPRLLIYDVSNRATGIPARFSGSGSGTDFTLTISSLEPEDFAVYYCQHRYSWPLTFGGGTKVEIKGGGGSGGGGSGGGGSQVQLVQSGGGLVKPGGSLRLSCAASGFTFSDYYMSWIRQAPGKGLEWVSYISSSGSTIYYADSVKGRFTISRDNAKNSLYLQMNSLRAEDTAVYYCARDGYRTHNWFDPWGQGTLVTVSS
B8: anti-mesothelin scFv-M28 (scFv)
scFv: QSALTQPPSASGSPGQSVTISCSGTSSDVGGYNFVSWYQHHPGKAPKLMIYEVSKRPSGVPDRFSGSKSGNTASLTVSGLQAEDEADYYCSSYAGRNNPYLFGTGTKLTVLGGGGSGGGGSGGGGSQLQLQESGAEVKKPGSSVKVSCKASGGTFSSYAISWVRQAPGQGLEWMGGIIPIFGTANYAQKFQGRVTITADESTSTAYMELSSLRSEDTAVYYCARDLGGYSYGHGLDYWGQGTLVTVSS
B9: anti-mesothelin scFv-M31 (scFv)
scFv: QSALTQPPSASGSPGQSVTISCTGTSSDIGGYNSVSWYQQHPGKAPKLIIYGVSRRPSGVPDRFSGSKSANTASLTVSGLQAVDEADYYCSSYGGSNNLLFGGGTKLTVLGGGGSGGGGSGGGGSEVHLVESGGGLAQPGGSLRLSCAASGFSFSSSWMAWVRQAPGKGLEWVANIKQDGSSQYYVDSVKGRFTISRDNAKNSLSLQMNSLRAEDTAVYYCARDIWYSIDYWGQGTLVTVSS
B10: anti-mesothelin scFv-M32 (scFv)
scFv: DIRMTQSPSSLSASVGDRVTVTCQASEDINNSLNWYQQKPGKAPQLLIYDASDLETGVPSRFSGRGSGRDFTLTISSLQPEDFATYYCQQLNSYPLTFGGGTKLEIKGGGGSGGGGSGGGGSQVQLVQSGAEVKKPGASVKVSCKASGFTFIGYYLHWVRQAPGQGLEWMGIINPSGGRTSMAQKFQGRVSMTTDTSTGTVYLDLGRLGSDDTAVYYCARADNWNAGSMDVWGNGTTVTVSS
B11: anti-mesothelin scFv-M12 (scFv)
scFv: AIRLTQSPSLLSASVGDRVTVTCRASQGGGNYLAWYQQKPGKAPKLLIYGASKLQSGVPSRFSGSGSGTEFTLTISSLQPEDFATYYCQQLNSYPVTFGQGTKVDIKGGGGSGGGGSGGGGSEVQLVESGAEVKKPGASVKVSCKASGYTFTTYYIHWVRQAPGQGLEWMGIINPSSGSTTYTQKFQGRVTMTRDTSTSTVYIELSGLRSEDTAVYYCARGETLRGYFDYWGQGTLVTVSS
B12: anti-mesothelin scFv-M8 (scFv)
scFv: DIQLTQSPSSLSASVGDRVTITCRASQSISSSLNWYQQKPGKAPKLLIYAASSLQSGVPSRFSGSGSGTDFTLTISSLQPEDFATYSCQQSYSTPLTFGGGTKVEIKGGGGSGGGGSGGGGSQVHLVESGGGVVQPGRSLRVSCAASGFTFSGYAMYWVRQAPGKGLEYVSAITTNGGSTNYADSVKGRFTISRDNSKNTLYLQMSSLRAGDTAVYYCARGAPGYRGYYMDVWGKGTTVTVSS
B13: anti-mesothelin scFv-M27 (scFv)
scFv: EIVLTQSPGTLSLSPGERATLSCRASQPIVASHLAWYQHKPGQAPRLLIYGASTRAAGIPDRFSGSGSGTDFTLTISRLEPEDFAVYFCQQYGISPFTFGPGTKVDIKGGGGSGGGGSGGGGSQVQLVQSGAEVKKPGESLKISCQGSGYSFTDYWIGWVRQAPGQGLEWMGWITPNNGNTNYAPKFQGRVTLTTDTSTSTAYMELRSLTSDDTAVYFCARRGRNSSGYLYYYSMDVWGQGTTVTVSS
B14: anti-mesothelin scFv-M37 (scFv)
scFv: DIVMTQTPSSLSASVGDRVTITCRASQGISNYLAWFQQKPGKAPKPLIYAASSLQSGVPSKFSGSGSGTDFTLTISNLQPEDFATYICQQYSSYPITFGQGTRLEIKGGGGSGGGGSGGGGSQLQLQESGPGLVKPSETLSLTCAVSGGSISPYYWTWIRQSPGKAMEWMGYIHYSGRTNYNPSLESRATFSVDTSKNQISLKLNSVTAADTAVYYCTKVGDPGLFDYWGPGTLVTVSS
B15: A40C2828 (protein)
membrane fusion protein with an anti-CD40 antibody part: QVQLVQSGAEVKKPGASVKVSCTASGFNIKDYYVHWVKQAPGQGLEWMGRIDPEDGDSKYAPKFQGKATMTADTSTSTVYMELSSLRSEDTAVYYCTTSYYVGTYGYWGQGTLVTVSSGGGGSGGGGSGGGGSDIQMTQSPSSLSASVGDRVTITCSASSSVSYMLWFQQKPGKAPKLLIYSTSNLASGVPSRFSGSGSGTDFTLTISSLQPEDFATYYCQQRTFYPYTFGGGTKVEIKRTASIEVMYPPPYLDNEKSNGTIIHVKGKHLCPSPLFPGPSKPFWVLVVVGGVLACYSLLVTVAFIIFWVRSKRSRLLHSDYMNMTPRRPGPTRKHYQPYAPPRDFAAYRS
B16: 4.6 (bispecific antibody)
single chain, scFv-G4S-scFv: QVQLVQSGAEVKKPGSSVKVSCKASGGTFSSYAISWVRQAPGQGLEWMGMINPSGGTTSYAQKFQGRVTMTRDTSTSTVYMELSSLRPEDTAVYYCARGFRMDQWGQGTLVTVSSGGGGSGGGGSGGGGSQSALTQPPSASGSPGQSVTISCTGTSSDVGAYNFVSWYQQHPGNAPKLIIYDVRKRPSGIPDRFSASKSGNTASLTVSGLQADDEADYYCSSYAGNNNLVFGGGTKLTVLGGGGSQVKLQESGPGLVKPSETLSITCTVSGFSLSDYGVHWVRQSPGKGLEWLGVIWAGGGTNYNSALMSRKTISKDNSKSQVFLKMSSLTAADTAVYYCARDKGYSYYYSMDYWGQGTTVTVSSGGGGSGGGGSGGGGSDIQLTQSPSSLSVSVGDRVTISCRASESVEYYVTSLMQWYQQKPGQAPKLLIFAASNVESGVPSRFSGSGSGTNFTLTISSVQEEDFAMYFCQQSRKVPYTFGGGTKLEIK
B17: 5.12 (bispecific antibody)
single chain, scFv-G4S-scFv: B16 single chain, scFv-G4S-scFv with I34V, S188R
B18: 5.36 (bispecific antibody)
single chain, scFv-G4S-scFv: B16 single chain, scFv-G4S-scFv with E10Q, S188I
B19: 5.25 (bispecific antibody)
single chain, scFv-G4S-scFv: B16 single chain, scFv-G4S-scFv with N228R
B20: 5.17 (bispecific antibody)
single chain, scFv-G4S-scFv: B16 single chain, scFv-G4S-scFv with N228E, L229M
B21: 5.28 (bispecific antibody)
single chain, scFv-G4S-scFv: B16 single chain, scFv-G4S-scFv with V183T

target: CD28 (detection antigen of the BLI assay) (human) (UniProt P10747); experiment: BLI (GATOR)

binding, binds:
B1

target: CD40 (analyte of the SPR assay) (UniProt P25942); experiment: SPR (Biacore 2000)

binding, binds:
B2

target: mesothelin-Fc recombinant protein (human) (UniProt Q13421); experiment: flow cytometry (FACS staining) of CAR-T cells with mesothelin-Fc

binding, binds:
B3, B4, B5, B6, B7, B8, B9, B10, B11, B12, B13, B14

target: CD40-Fc (not stated for this staining reagent (paragraph 357 names a recombinant human CD40-Fc for the phage screening)) (UniProt P25942); experiment: flow cytometry of T cells expressing new A40C28, CD40-Fc + PE-anti-Fc

binding, binds:
B15

target: CD40-Fc (not stated for this staining reagent (paragraph 357 names a recombinant human CD40-Fc for the phage screening)) (UniProt P25942); experiment: flow cytometry of T cells expressing the diabody, CD40-Fc + PE-anti-Fc

binding, binds:
B16, B17, B18, B19, B20, B21

target: CD40-Fc (not stated for this staining reagent (paragraph 357 names a recombinant human CD40-Fc for the phage screening)) (UniProt P25942); experiment: flow cytometry, lentivirus-transduced T cells, CD40-Fc 2 µg/mL + PE-anti-Fc

binding, binds:
B15, B20
